Experimental data published in the supplement of paper PMC5355238.
Counter-ions that a name gives are not always drawn. The list shows a part of the results. Most values lie at the level of the controls, where differences are scatter.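 Using flow cytometry, the assay measures the median γH2AX antibody signal in S-phase Reh cells (a human leukemia line). Each score is the number of standard deviations from the median difference of paired plate sets. Candidate hits scored above 2.5; compounds scoring below -2 lowered MK1775-induced damage.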

system: Reh; assay: Z' of S-phase gammaH2AX difference (drug + MK1775 minus drug alone) (Z-score); higher = stronger synergistic S-phase DNA damage with MK1775; settings: MK1775 concentration 400 nM; first compound 10 µM; 4 h

Row | SMILES | Z' of S-phase gammaH2AX difference (Z-score)
1 | Cn1cc(-c2ccc3nnc(Sc4ccc5ncccc5c4)n3n2)cn1 + C=CCn1c(=O)c2cnc(Nc3ccc(N4CCN(C)CC4)cc3)nc2n1-c1cccc(C(C)(C)O)n1 [MK1775] | inactive: 0.14
2 | Clc1ccc(Nc2nnc(Cc3ccncc3)c3ccccc23)cc1 [Vatalanib dihydrochloride (PTK787)] + C=CCn1c(=O)c2cnc(Nc3ccc(N4CCN(C)CC4)cc3)nc2n1-c1cccc(C(C)(C)O)n1 [MK1775] | inactive: 0.0939
3 | Cc1cc(O)c2c(c1)C(=O)c1cc(O)cc(O)c1C2=O [Emodin] + C=CCn1c(=O)c2cnc(Nc3ccc(N4CCN(C)CC4)cc3)nc2n1-c1cccc(C(C)(C)O)n1 [MK1775] | inactive: -0.658
4 | COC(=O)c1ccc2c(C(=Nc3ccc(N(C)C(=O)CN4CCN(C)CC4)cc3)c3ccccc3)c(O)[nH]c2c1 [BIBF1120 (Vargatef)] + C=CCn1c(=O)c2cnc(Nc3ccc(N4CCN(C)CC4)cc3)nc2n1-c1cccc(C(C)(C)O)n1 [MK1775] | inactive: -0.31
5 | CN(C)CCCN1c2ccccc2CCc2ccccc21 [Imipramine hydrochloride] + C=CCn1c(=O)c2cnc(Nc3ccc(N4CCN(C)CC4)cc3)nc2n1-c1cccc(C(C)(C)O)n1 [MK1775] | inactive: -0.469
6 | NC(CO)C(=O)NNCc1ccc(O)c(O)c1O (configuration not stated) [Benserazide hydrochloride] + C=CCn1c(=O)c2cnc(Nc3ccc(N4CCN(C)CC4)cc3)nc2n1-c1cccc(C(C)(C)O)n1 [MK1775] | inactive: 0.611
7 | CCCn1c(=O)c2[nH]c(-c3ccc(OCC(=O)Nc4ccc(C#N)cc4)cc3)nc2n(CCC)c1=O + C=CCn1c(=O)c2cnc(Nc3ccc(N4CCN(C)CC4)cc3)nc2n1-c1cccc(C(C)(C)O)n1 [MK1775] | inactive: 1.22
8 | O=C1C(SCCO)=C(SCCO)C(=O)c2ccccc21 + C=CCn1c(=O)c2cnc(Nc3ccc(N4CCN(C)CC4)cc3)nc2n1-c1cccc(C(C)(C)O)n1 [MK1775] | inactive: -4.71
9 | CC1(C)CCC2=C(O1)c1ccccc1C(=O)C2=O [beta-Lapachone] + C=CCn1c(=O)c2cnc(Nc3ccc(N4CCN(C)CC4)cc3)nc2n1-c1cccc(C(C)(C)O)n1 [MK1775] | inactive: -1
10 | S=C(NCc1ccc2c(c1)OCO2)N1CCN(c2ncnc3c2oc2ccccc23)CC1 [Amuvatinib (MP-470)] + C=CCn1c(=O)c2cnc(Nc3ccc(N4CCN(C)CC4)cc3)nc2n1-c1cccc(C(C)(C)O)n1 [MK1775] | inactive: 0.602
11 | Cc1c(CCOc2ccc(C(=O)O)cc2)c2cc(Cl)ccc2n1C(c1ccccc1)c1ccccc1 + C=CCn1c(=O)c2cnc(Nc3ccc(N4CCN(C)CC4)cc3)nc2n1-c1cccc(C(C)(C)O)n1 [MK1775] | inactive: 0.0702
12 | Cn1cnc([N+](=O)[O-])c1Sc1ncnc2[nH]cnc12 [Azathioprine] + C=CCn1c(=O)c2cnc(Nc3ccc(N4CCN(C)CC4)cc3)nc2n1-c1cccc(C(C)(C)O)n1 [MK1775] | inactive: -0.14
13 | Cn1cnc([N+](=O)[O-])c1Sc1ncnc2[nH]cnc12 [Azathioprine (Azasan, Imuran)] + C=CCn1c(=O)c2cnc(Nc3ccc(N4CCN(C)CC4)cc3)nc2n1-c1cccc(C(C)(C)O)n1 [MK1775] | inactive: -0.154
14 | COc1c2c(nc3ccccc13)OC(C(C)(O)CO)C2 (configuration not stated) [Dubinidine] + C=CCn1c(=O)c2cnc(Nc3ccc(N4CCN(C)CC4)cc3)nc2n1-c1cccc(C(C)(C)O)n1 [MK1775] | inactive: 0.867
15 | CC(C)C(=O)Nc1ccc([N+](=O)[O-])c(C(F)(F)F)c1 [Flutamide (Eulexin)] + C=CCn1c(=O)c2cnc(Nc3ccc(N4CCN(C)CC4)cc3)nc2n1-c1cccc(C(C)(C)O)n1 [MK1775] | inactive: 0.0377
16 | CC(C)C(=O)Nc1ccc([N+](=O)[O-])c(C(F)(F)F)c1 [Flutamide] + C=CCn1c(=O)c2cnc(Nc3ccc(N4CCN(C)CC4)cc3)nc2n1-c1cccc(C(C)(C)O)n1 [MK1775] | inactive: -0.342
17 | CCOC(=O)Nc1ccc(NCc2ccc(F)cc2)nc1N [Flupirtine maleate] + C=CCn1c(=O)c2cnc(Nc3ccc(N4CCN(C)CC4)cc3)nc2n1-c1cccc(C(C)(C)O)n1 [MK1775] | inactive: 0.683
18 | CC1COc2c(N3CCN(C)CC3)c(F)cc3c(=O)c(C(=O)O)cn1c23 (configuration not stated) [Ofloxacin] + C=CCn1c(=O)c2cnc(Nc3ccc(N4CCN(C)CC4)cc3)nc2n1-c1cccc(C(C)(C)O)n1 [MK1775] | inactive: -0.805
19 | O=C(O)/C=C/c1cnc[nH]1 [4-Imidazoleacrylic acid] + C=CCn1c(=O)c2cnc(Nc3ccc(N4CCN(C)CC4)cc3)nc2n1-c1cccc(C(C)(C)O)n1 [MK1775] | inactive: 0.0429

A few values from above:
For Z' of S-phase gammaH2AX difference (Z-score), Cn1cnc([N+](=O)[O-])c1Sc1ncnc2[nH]cnc12 [Azathioprine (Azasan, Imuran)] + C=CCn1c(=O)c2cnc(Nc3ccc(N4CCN(C)CC4)cc3)nc2n1-c1cccc(C(C)(C)O)n1 [MK1775] is listed with inactive: -0.154
For Z' of S-phase gammaH2AX difference (Z-score), CN(C)CCCN1c2ccccc2CCc2ccccc21 [Imipramine hydrochloride] + C=CCn1c(=O)c2cnc(Nc3ccc(N4CCN(C)CC4)cc3)nc2n1-c1cccc(C(C)(C)O)n1 [MK1775] is listed with inactive: -0.469

(continued)

Row | SMILES | Z' of S-phase gammaH2AX difference (Z-score)
20 | CC(C)NCC(O)c1cc(O)cc(O)c1 (configuration not stated) [Metaproterenol hemisulfate] + C=CCn1c(=O)c2cnc(Nc3ccc(N4CCN(C)CC4)cc3)nc2n1-c1cccc(C(C)(C)O)n1 [MK1775] | inactive: 1.54
21 | CC(=O)/C(C)=N/O [2,3-Butanedione monoxime] + C=CCn1c(=O)c2cnc(Nc3ccc(N4CCN(C)CC4)cc3)nc2n1-c1cccc(C(C)(C)O)n1 [MK1775] | inactive: -0.16
22 | O=[N+]([O-])c1cc2nc(O)c(O)nc2cc1[N+](=O)[O-] + C=CCn1c(=O)c2cnc(Nc3ccc(N4CCN(C)CC4)cc3)nc2n1-c1cccc(C(C)(C)O)n1 [MK1775] | inactive: 0.658
23 | CCCn1cnc2c1c(=O)n(CCCCC(C)=O)c(=O)n2C [Propentofylline] + C=CCn1c(=O)c2cnc(Nc3ccc(N4CCN(C)CC4)cc3)nc2n1-c1cccc(C(C)(C)O)n1 [MK1775] | inactive: -0.0146
24 | CCCCCCCCCCCCCCSCC(=O)O [Tetradecylthioacetic acid] + C=CCn1c(=O)c2cnc(Nc3ccc(N4CCN(C)CC4)cc3)nc2n1-c1cccc(C(C)(C)O)n1 [MK1775] | inactive: 0.0354
25 | CC(C)(CO)Cc1cc(C(C)(C)C)c(O)c(C(C)(C)C)c1 + C=CCn1c(=O)c2cnc(Nc3ccc(N4CCN(C)CC4)cc3)nc2n1-c1cccc(C(C)(C)O)n1 [MK1775] | inactive: -0.294
26 | O=C(O)CN(CCN(CC(=O)O)CC(=O)O)CCN(CC(=O)O)CC(=O)O [Diethylenetriaminepentaacetic acid] + C=CCn1c(=O)c2cnc(Nc3ccc(N4CCN(C)CC4)cc3)nc2n1-c1cccc(C(C)(C)O)n1 [MK1775] | inactive: 0.755
27 | C#CCN(C)CCCOc1ccc(Cl)cc1Cl [Clorgyline hydrochloride] + C=CCn1c(=O)c2cnc(Nc3ccc(N4CCN(C)CC4)cc3)nc2n1-c1cccc(C(C)(C)O)n1 [MK1775] | inactive: -0.539
28 | COc1ccc(CCNC[C@@H](O)c2ccc(O)cc2)cc1OC [R(-)-Denopamine] + C=CCn1c(=O)c2cnc(Nc3ccc(N4CCN(C)CC4)cc3)nc2n1-c1cccc(C(C)(C)O)n1 [MK1775] | inactive: -1.83
29 | CN/C(=N\c1ccc(C2=NNC(=O)CC2C)cc1)NC#N (configuration not stated) + C=CCn1c(=O)c2cnc(Nc3ccc(N4CCN(C)CC4)cc3)nc2n1-c1cccc(C(C)(C)O)n1 [MK1775] | inactive: -0.0291
30 | COc1ccccc1N1CCN(CCCNc2cc(=O)n(C)c(=O)n2C)CC1 [Urapidil hydrochloride] + C=CCn1c(=O)c2cnc(Nc3ccc(N4CCN(C)CC4)cc3)nc2n1-c1cccc(C(C)(C)O)n1 [MK1775] | inactive: 0.722
31 | O=C(CCCN1CCC(O)(c2cccc(C(F)(F)F)c2)CC1)c1ccc(F)cc1 [Trifluperidol hydrochloride] + C=CCn1c(=O)c2cnc(Nc3ccc(N4CCN(C)CC4)cc3)nc2n1-c1cccc(C(C)(C)O)n1 [MK1775] | inactive: -0.49
32 | O=c1c2ccccc2nc2n1CCc1c-2[nH]c2ccccc12 [Rutaecarpine] + C=CCn1c(=O)c2cnc(Nc3ccc(N4CCN(C)CC4)cc3)nc2n1-c1cccc(C(C)(C)O)n1 [MK1775] | inactive: -0.281
33 | OC[C@H]1O[C@@H](n2cnc3c2N=CNC[C@H]3O)C[C@@H]1O [Pentostatin] + C=CCn1c(=O)c2cnc(Nc3ccc(N4CCN(C)CC4)cc3)nc2n1-c1cccc(C(C)(C)O)n1 [MK1775] | inactive: 0.363
34 | CN(C)c1ccccc1CN1CCCN(Cc2ccccc2N(C)C)C1c1ccncc1 + C=CCn1c(=O)c2cnc(Nc3ccc(N4CCN(C)CC4)cc3)nc2n1-c1cccc(C(C)(C)O)n1 [MK1775] | inactive: 0.388
35 | Oc1cc2c(c(Cl)c1O)CCNCC2c1ccccc1 (configuration not stated) [(?)-6-Chloro-PB hydrobromide] + C=CCn1c(=O)c2cnc(Nc3ccc(N4CCN(C)CC4)cc3)nc2n1-c1cccc(C(C)(C)O)n1 [MK1775] | inactive: -0.00932
36 | COCC(=O)O[C@]1(CCN(C)CCCc2nc3ccccc3[nH]2)CCc2cc(F)ccc2[C@@H]1C(C)C [Mibefradil dihydrochloride] + C=CCn1c(=O)c2cnc(Nc3ccc(N4CCN(C)CC4)cc3)nc2n1-c1cccc(C(C)(C)O)n1 [MK1775] | inactive: -0.718
37 | O=C(O)CCCCC1CCSS1 (stereo not drawn) [(?)-alpha-Lipoic Acid] + C=CCn1c(=O)c2cnc(Nc3ccc(N4CCN(C)CC4)cc3)nc2n1-c1cccc(C(C)(C)O)n1 [MK1775] | inactive: 0.0988
